# Data taken from US20240158445A1, “CYCLIC CELL-PENETRATING PEPTIDES WITH THREE OR MORE HYDROPHOBIC RESIDUES” (Ohio State Innovation Foundation, priority 2021, published 2024).
# Protein sequences, listed by entry. Tags and fused reporters are not part of them. Residues count along the entry.
# UniProt Q14145, 321-609 limits assumed: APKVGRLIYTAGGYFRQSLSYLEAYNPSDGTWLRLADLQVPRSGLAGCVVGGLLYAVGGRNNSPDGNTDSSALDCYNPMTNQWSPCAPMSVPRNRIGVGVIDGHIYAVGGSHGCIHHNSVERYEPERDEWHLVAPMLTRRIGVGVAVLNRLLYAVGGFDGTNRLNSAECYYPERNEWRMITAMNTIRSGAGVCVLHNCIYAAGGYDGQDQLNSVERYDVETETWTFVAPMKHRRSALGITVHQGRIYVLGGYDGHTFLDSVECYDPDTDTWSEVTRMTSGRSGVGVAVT
# pIC50: −log10 of the molar value. Structures were worked out from names or drawings and are uncertain.
# What was measured:
# [1] = molecular target: Keap1 (Homo sapiens, UniProt Q14145); assay: FP-based competition assay; conditions: read-out: IC50, binding to the Kelch domain of Keap1; Keap1 40 nM, fluorescein-labeled peptide 2 20 nM, 1 h
# [2] = tested on: Keap1-Nrf2 interaction; assay: Luciferase reporter assay in ARE reporter-HepG2 cells; conditions: 18 h; for increase of luciferase activity: 310 nM; for maximal induction of luciferase expression: highest concentration tested (5 μM)
SMILES,pIC50 [1],increase of luciferase activity [2],maximal induction of luciferase expression [2]
CC(C)C[C@@H]1NC(=O)[C@H](Cc2ccccc2)NC(=O)[C@H](CCC(=O)O)NC(=O)CNC(=O)[C@H]([C@@H](C)O)NC(=O)[C@H](CCC(=O)O)NC(=O)[C@@H]2CCCN2C(=O)[C@H](CC(=O)O)NC(=O)[C@H](CC(C)C)NC(=O)[C@H](CCC(=O)NCCOCCOCC(=O)NCCCC[C@H](NC(=O)CC[C@@H]2NC(=O)[C@@H](CCCNC(=N)N)NC(=O)[C@H](CCCNC(=N)N)NC(=O)[C@@H](CCCNC(=N)N)NC(=O)[C@H](CCCNC(=N)N)NC(=O)[C@H](Cc3csc4ccccc34)NC(=O)[C@@H](Cc3ccccc3)NC(=O)[C@H](Cc3ccccc3)NC2=O)C(N)=O)NC(=O)CNC1=O,7.66,2 fold,4 fold
CC(C)C[C@@H]1NC(=O)[C@H](Cc2ccccc2)NC(=O)[C@H](CCC(=O)O)NC(=O)CNC(=O)[C@H]([C@@H](C)O)NC(=O)[C@H](CCC(=O)O)NC(=O)[C@@H]2CCCN2C(=O)[C@H](CC(=O)O)NC(=O)[C@H](CC(C)C)NC(=O)[C@H](CCC(=O)NCCOCCOCC(=O)NCCCC[C@H](NC(=O)CC[C@@H]2NC(=O)[C@@H](CCCNC(=N)N)NC(=O)[C@H](CCCNC(=N)N)NC(=O)[C@@H](CCCNC(=N)N)NC(=O)[C@H](CCCNC(=N)N)NC(=O)[C@H](Cc3ccc4ccccc4c3)NC(=O)[C@@H](Cc3ccccc3)NC(=O)[C@H](Cc3ccccc3)NC2=O)C(N)=O)NC(=O)CNC1=O,7.74,did not have significant effect,3 fold
